The list shows a part of the results.
What was measured:
Experiment in all cases: log2 fold change, soluble protein after heating vs DMSO (PISA); higher = thermal stabilisation; K562 lysate, 10 uM; active = over 0.2 and 3.5 SD of the protein, either way, in both replicates (recomputed)
erlotinib = compound: C#Cc1cccc(Nc2ncnc3cc(OCCOC)c(OCCOC)cc23)c1 [erlotinib]
Summary of the method: (§1)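 Following dounce homogenisation of K562 pellets in PBS pH 7.4 with 1 mM MgCl2, crude extract at 1 mg/mL protein was incubated for 30 min with 10 μM compound. Aliquots were then heated for 3 min over 48°C-58°C and pooled, NP-40 was added to 0.5% at 4°C, and soluble protein was recovered as the supernatant at 21,000xg for 90 min. Channel-sum-equalised TMTpro 16plex LC-MS/MS quantified this protein. Each value, from duplicates, is a log-two fold change in thermal stability relative to solvent controls.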

Chains of the proteins cited; added tags and fusions are not shown. Lines headed by an entry give the natural chain unless they say otherwise; changes in a name come on top.
UniProt Q9UQN3, whole entry, looked up: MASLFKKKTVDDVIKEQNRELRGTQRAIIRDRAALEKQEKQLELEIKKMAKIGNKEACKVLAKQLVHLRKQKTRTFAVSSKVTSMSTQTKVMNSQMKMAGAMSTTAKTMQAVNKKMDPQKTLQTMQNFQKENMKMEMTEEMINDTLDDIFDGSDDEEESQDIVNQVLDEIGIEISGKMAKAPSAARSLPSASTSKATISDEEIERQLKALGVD
UniProt Q9NZ45: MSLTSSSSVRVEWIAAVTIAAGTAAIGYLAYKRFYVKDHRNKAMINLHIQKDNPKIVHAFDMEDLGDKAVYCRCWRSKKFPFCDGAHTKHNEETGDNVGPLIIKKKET
UniProt P24386: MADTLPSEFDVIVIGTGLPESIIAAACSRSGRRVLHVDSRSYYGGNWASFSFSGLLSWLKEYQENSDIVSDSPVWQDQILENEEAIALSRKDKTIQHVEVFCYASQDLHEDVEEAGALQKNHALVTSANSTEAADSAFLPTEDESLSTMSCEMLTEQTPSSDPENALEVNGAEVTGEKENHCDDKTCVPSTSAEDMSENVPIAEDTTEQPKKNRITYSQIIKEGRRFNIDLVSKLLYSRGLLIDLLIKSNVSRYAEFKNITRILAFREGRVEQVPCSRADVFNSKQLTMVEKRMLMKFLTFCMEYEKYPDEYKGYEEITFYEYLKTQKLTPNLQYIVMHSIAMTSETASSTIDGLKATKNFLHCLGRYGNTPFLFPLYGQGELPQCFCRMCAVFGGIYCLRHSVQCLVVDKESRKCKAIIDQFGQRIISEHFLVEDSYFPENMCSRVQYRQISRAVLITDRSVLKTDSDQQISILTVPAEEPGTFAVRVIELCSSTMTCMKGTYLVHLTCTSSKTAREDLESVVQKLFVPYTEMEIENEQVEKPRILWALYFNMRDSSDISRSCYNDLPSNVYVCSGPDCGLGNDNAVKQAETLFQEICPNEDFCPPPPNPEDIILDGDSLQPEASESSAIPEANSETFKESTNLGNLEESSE
UniProt Q9NZZ3: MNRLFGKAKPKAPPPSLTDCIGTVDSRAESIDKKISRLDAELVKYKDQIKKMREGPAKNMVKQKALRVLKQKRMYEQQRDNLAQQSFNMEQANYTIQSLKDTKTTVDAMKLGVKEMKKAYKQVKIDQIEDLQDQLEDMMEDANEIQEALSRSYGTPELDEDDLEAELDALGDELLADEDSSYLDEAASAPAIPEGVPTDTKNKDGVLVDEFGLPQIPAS
UniProt P12277: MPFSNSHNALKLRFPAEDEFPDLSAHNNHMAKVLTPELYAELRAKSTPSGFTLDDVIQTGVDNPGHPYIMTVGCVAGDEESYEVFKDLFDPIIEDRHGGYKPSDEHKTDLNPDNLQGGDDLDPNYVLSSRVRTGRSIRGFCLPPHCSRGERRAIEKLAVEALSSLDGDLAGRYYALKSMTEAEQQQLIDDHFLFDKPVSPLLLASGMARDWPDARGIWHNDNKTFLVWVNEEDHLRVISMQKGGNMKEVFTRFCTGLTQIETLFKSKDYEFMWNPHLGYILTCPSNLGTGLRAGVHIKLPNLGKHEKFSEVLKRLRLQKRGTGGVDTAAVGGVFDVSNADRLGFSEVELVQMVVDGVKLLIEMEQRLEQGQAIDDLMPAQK
UniProt Q9BQ75: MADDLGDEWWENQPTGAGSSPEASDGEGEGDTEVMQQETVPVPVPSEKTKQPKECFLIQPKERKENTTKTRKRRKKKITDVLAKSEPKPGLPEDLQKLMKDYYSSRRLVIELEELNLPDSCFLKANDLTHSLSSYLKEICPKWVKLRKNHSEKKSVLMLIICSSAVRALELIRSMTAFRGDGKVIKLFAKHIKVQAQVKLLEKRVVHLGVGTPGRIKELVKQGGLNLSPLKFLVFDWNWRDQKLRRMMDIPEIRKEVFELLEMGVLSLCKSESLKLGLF
UniProt P30085: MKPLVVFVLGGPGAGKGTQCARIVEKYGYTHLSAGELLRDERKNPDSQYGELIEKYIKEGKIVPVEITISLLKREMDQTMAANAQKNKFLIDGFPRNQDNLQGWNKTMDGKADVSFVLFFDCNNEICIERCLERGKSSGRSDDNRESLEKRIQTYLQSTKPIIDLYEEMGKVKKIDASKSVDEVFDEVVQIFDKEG
UniProt P62633: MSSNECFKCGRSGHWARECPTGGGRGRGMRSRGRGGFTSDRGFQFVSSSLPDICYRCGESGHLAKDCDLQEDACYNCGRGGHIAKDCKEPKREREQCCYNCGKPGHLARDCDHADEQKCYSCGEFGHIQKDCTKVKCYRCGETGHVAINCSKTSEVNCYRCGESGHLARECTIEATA
UniProt Q8WUX9: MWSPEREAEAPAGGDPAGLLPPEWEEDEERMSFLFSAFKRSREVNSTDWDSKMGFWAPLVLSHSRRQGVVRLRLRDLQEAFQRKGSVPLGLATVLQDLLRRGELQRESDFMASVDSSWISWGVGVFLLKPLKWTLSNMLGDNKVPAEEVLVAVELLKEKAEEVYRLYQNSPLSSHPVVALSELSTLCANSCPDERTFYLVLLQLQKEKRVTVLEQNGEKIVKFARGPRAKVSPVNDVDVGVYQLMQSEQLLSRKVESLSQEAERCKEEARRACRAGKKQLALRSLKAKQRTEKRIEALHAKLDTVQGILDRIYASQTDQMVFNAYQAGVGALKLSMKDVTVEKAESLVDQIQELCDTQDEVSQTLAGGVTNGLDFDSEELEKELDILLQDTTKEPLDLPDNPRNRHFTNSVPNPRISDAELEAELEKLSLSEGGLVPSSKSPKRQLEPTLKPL
UniProt Q7Z7K0: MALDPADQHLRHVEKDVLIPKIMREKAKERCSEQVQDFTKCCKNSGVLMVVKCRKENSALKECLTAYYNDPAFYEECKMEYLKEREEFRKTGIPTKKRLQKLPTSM
UniProt Q9NRP2: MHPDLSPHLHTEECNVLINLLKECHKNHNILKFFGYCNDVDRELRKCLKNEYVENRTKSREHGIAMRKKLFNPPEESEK
UniProt P61024, whole entry, looked up: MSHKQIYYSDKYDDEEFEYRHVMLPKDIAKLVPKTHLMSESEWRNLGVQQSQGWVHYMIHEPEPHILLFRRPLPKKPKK
UniProt Q9ULV3: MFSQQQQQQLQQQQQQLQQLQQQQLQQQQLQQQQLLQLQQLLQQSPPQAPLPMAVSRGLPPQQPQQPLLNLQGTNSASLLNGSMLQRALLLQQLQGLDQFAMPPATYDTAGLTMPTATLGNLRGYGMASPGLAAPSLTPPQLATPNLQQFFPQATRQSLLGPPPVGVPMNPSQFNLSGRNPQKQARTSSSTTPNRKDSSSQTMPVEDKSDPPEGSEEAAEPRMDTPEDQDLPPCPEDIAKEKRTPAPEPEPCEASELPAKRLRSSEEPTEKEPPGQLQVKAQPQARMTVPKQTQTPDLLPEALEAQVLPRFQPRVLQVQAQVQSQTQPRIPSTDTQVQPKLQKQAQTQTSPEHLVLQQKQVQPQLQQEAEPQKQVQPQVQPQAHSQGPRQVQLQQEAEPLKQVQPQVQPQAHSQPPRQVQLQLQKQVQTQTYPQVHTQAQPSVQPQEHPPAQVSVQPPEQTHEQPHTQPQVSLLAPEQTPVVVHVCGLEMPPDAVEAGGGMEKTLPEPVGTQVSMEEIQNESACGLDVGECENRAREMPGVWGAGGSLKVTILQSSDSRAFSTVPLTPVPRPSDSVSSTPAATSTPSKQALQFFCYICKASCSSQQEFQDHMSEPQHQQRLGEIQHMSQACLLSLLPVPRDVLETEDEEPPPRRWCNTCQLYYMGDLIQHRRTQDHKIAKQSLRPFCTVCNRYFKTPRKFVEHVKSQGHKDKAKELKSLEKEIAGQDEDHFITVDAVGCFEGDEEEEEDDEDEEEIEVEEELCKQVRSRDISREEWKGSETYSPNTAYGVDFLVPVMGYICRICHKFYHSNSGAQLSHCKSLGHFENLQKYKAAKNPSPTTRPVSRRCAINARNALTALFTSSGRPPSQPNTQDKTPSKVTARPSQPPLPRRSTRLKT
UniProt Q8N4Q1: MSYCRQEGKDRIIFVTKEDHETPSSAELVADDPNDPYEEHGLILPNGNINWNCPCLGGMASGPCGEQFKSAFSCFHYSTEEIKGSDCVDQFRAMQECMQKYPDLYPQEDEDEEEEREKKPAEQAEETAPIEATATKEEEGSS
UniProt O43633: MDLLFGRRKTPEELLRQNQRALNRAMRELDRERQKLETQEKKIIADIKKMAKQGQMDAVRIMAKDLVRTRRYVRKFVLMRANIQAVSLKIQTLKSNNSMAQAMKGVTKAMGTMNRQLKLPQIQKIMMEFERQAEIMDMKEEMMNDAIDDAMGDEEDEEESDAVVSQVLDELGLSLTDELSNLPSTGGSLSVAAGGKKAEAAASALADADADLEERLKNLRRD
UniProt Q96JM3: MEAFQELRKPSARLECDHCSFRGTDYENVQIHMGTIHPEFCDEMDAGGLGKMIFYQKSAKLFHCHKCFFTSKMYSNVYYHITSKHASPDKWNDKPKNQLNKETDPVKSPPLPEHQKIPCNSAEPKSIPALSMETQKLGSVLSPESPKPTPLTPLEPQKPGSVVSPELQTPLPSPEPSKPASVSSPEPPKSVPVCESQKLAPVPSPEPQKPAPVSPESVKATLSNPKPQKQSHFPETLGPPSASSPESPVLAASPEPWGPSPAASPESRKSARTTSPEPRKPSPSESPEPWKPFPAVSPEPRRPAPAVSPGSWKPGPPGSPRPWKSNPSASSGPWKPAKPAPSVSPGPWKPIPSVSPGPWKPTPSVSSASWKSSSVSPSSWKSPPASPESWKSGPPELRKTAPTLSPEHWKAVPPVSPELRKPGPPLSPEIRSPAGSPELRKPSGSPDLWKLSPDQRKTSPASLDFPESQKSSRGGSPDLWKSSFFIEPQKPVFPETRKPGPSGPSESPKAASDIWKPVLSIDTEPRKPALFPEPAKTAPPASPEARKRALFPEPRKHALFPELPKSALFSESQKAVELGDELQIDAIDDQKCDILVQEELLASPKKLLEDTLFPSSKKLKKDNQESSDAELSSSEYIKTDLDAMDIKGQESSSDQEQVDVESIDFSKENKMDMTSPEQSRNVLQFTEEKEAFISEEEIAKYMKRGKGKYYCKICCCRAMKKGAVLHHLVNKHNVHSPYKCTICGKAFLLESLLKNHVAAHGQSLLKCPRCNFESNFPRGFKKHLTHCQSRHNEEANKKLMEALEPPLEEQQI

[1] = compound: C/C(=N\NC(=O)C1=CC(=CC=C1)S(=O)(=O)N2CCOCC2)/C3=C(C=CC(=C3)Cl)O
Summary of the method: as §1

[2] = compound: C1=CC(=CC=C1C2=NC3=C(N2)C=C(C=C3)C(=O)N)OC4=CC=C(C=C4)Cl
Summary of the method: as §1

[3] = compound: C1=CC2=C(C=CC(=C2)/C=C\3/C(=O)NC(=NCC4=CC=CS4)S3)N=C1
Summary of the method: as §1

[4] = compound: C1=CC2=NC=CN=C2C=C1/C=C/3\C(=O)NC(=O)S3
Summary of the method: as §1

[5] = compound: C1=CC=C(C=C1)C2=NC(=C(N2)C3=CC=NC=C3)C4=CC(=C(C=C4)Cl)O
Summary of the method: as §1

[6] = compound: C1=CC=C2C(=C1)C3=NNC4=CC=CC(=C43)C2=O
Summary of the method: as §1

[7] = compound: C1CCN(C1)C(=O)NC2=CC=CC(=C2)NC3=NC=C(C(=N3)NCCC4=CN=CN4)Br
Summary of the method: as §1

[8] = compound: C1CN(CCC1(CC2=CC=C(C=C2)Cl)N)C3=NC=NC4=C3C=CN4
Summary of the method: as §1

IRAK-1-4 Inhibitor I = compound: C1COCCN1CCN2C3=CC=CC=C3N=C2NC(=O)C4=CC(=CC=C4)[N+](=O)[O-] [IRAK-1-4 Inhibitor I]
Summary of the method: as §1

ibrutinib = compound: C=CC(=O)N1CCC[C@@H](n2nc(-c3ccc(Oc4ccccc4)cc3)c3c(N)ncnc32)C1 [ibrutinib]
Summary of the method: as §1

[9] = compound: CC(=O)c1cnc2ccc(-c3cc(Cl)c(O)c(Cl)c3)nc2c1N[C@H]1CC[C@H](CN(C)C)CC1
Summary of the method: as §1

ralimetinib = compound: CC(C)(C)Cn1c(N)nc2ccc(-c3[nH]c(C(C)(C)C)nc3-c3ccc(F)cc3)nc21 [ralimetinib]
Summary of the method: as §1

[10] = compound: CC(C)(O)CC(=O)NCCn1ccc2ncnc(Nc3ccc(Oc4cccc(C(F)(F)F)c4)c(Cl)c3)c21
Summary of the method: as §1

[11] = compound: CC(C)C1=C2N=C(C=C(N2N=C1)NCC3=CC=CC=C3)NCCCCCCN
Summary of the method: as §1

[12] = compound: CC1=C(C(CC(=O)N1)C2=CC=C(C=C2)C(F)(F)F)C(=O)NC3=C(C=C4C(=C3)C=NN4)F
Summary of the method: as §1

[13] = compound: CC1=C(C2=C(C=C1)C(=O)C3=CC=CC=C3N2CCCN)C
Summary of the method: as §1

[14] = compound: CC1=C(C=C(C=C1)NC(=O)C2=CC(=CC=C2)C(C)(C)C#N)NC3=CC4=C(C=C3)N=CN(C4=O)C
Summary of the method: as §1

[15] = compound: CC1=C(C=C(C=C1)NC(=O)C2=CC(=CC=C2)N(C)C)NC(=O)C3=CC=C(C=C3)O
Summary of the method: as §1

[16] = compound: CC1=CC=C(C=C1)SC2=C3C=C(SC3=CN=C2)C(=O)N
Summary of the method: as §1

Measured: log2 fold change

CHMP2B (UniProt Q9UQN3)
inactive: erlotinib -0.039 | [1] -0.034 | [2] -0.01 | [3] 0.013 | [4] -0.009 | [5] 0.047 | [6] 0.04 | [7] -0.008 | [8] -0.03 | IRAK-1-4 Inhibitor I -0.023 | ibrutinib 0.026 | [9] 0.02 | ralimetinib 0.006 | [10] 0.031 | [11] -0.02 | [12] 0.019 | [13] -0.02 | [14] -0.023 | [15] -0.003 | [16] -0.029

CISD1 (UniProt Q9NZ45)
inactive: erlotinib -0.001 | [1] -0.081 | [2] 0.035 | [3] 0.004 | [4] 0.005 | [5] -0.026 | [6] 0.026 | [7] -0.009 | [8] 0.012 | IRAK-1-4 Inhibitor I 0.017 | ibrutinib 0.036 | [9] -0.015 | ralimetinib 0.03 | [10] -0.033 | [11] -0.037 | [12] -0.023 | [13] 0.025 | [14] 0.058 | [15] -0.031 | [16] -0.024

CHM (UniProt P24386)
inactive: erlotinib 0.041 | [1] 0.012 | [2] 0.063 | [3] -0.121 | [4] -0.055 | [5] 0.014 | [6] -0.033 | [7] -0.02 | [8] 0.018 | IRAK-1-4 Inhibitor I 0.049 | ibrutinib 0.03 | [9] -0.05 | ralimetinib 0.036 | [10] -0.031 | [11] -0.038 | [12] -0.08 | [13] 0.035 | [14] -0.023 | [15] -0.064 | [16] 0.015

CHMP5 (UniProt Q9NZZ3)
inactive: erlotinib -0.033 | [1] -0.048 | [2] 0.006 | [3] 0.063 | [4] -0.027 | [5] 0.035 | [6] 0.054 | [7] 0.015 | [8] -0.018 | IRAK-1-4 Inhibitor I -0.024 | ibrutinib -0.045 | [9] 0.014 | ralimetinib -0.051 | [10] -0.017 | [11] -0.036 | [12] 0.008 | [13] 0.007 | [14] 0.034 | [15] -0.043 | [16] -0.023

CKB (UniProt P12277)
inactive: erlotinib -0.008 | [1] 0.006 | [2] -0.043 | [3] -0.019 | [4] 0.024 | [5] -0.017 | [6] -0.029 | [7] -0.016 | [8] -0.025 | IRAK-1-4 Inhibitor I -0.013 | ibrutinib 0.01 | [9] 0.029 | ralimetinib 0.033 | [10] 0.014 | [11] 0.005 | [12] -0.029 | [13] 0.005 | [14] -0.032 | [15] 0.024 | [16] 0.016

CMSS1 (UniProt Q9BQ75)
inactive: erlotinib -0.029 | [1] 0.018 | [2] -0.031 | [3] 0.011 | [4] -0.059 | [5] -0.004 | [6] 0.011 | [7] -0.011 | [8] 0.03 | IRAK-1-4 Inhibitor I -0.035 | ibrutinib -0.012 | [9] -0.016 | ralimetinib -0.002 | [10] -0.011 | [11] 0.047 | [12] -0.015 | [13] 0.027 | [14] -0.059 | [15] 0.019 | [16] -0.004

CMPK1 (UniProt P30085)
inactive: erlotinib -0.019 | [1] -0.052 | [2] 0.021 | [3] 0.024 | [4] -0.015 | [5] -0.014 | [6] 0.073 | [7] 0.02 | [8] 0.005 | IRAK-1-4 Inhibitor I -0.002 | ibrutinib 0.008 | [9] 0.046 | ralimetinib 0.011 | [10] 0.002 | [11] -0.014 | [12] 0 | [13] 0.013 | [14] -0.005 | [15] 0.007 | [16] 0.007

CNBP isoform 4 (UniProt P62633)
inactive: erlotinib 0.045 | [1] -0.058 | [2] 0.028 | [3] 0.032 | [4] 0.001 | [5] -0.167 | [6] 0.093 | [7] 0.094 | [8] 0.037 | IRAK-1-4 Inhibitor I -0.074 | ibrutinib -0.008 | [9] 0.034 | ralimetinib 0.027 | [10] -0.156 | [11] -0.205 | [12] -0.121 | [13] 0.057 | [14] 0.263 | [15] -0.025 | [16] -0.003

CHMP7 (UniProt Q8WUX9)
inactive: erlotinib -0.003 | [1] 0.01 | [2] 0.006 | [3] -0.017 | [4] 0.01 | [5] -0.041 | [6] 0.005 | [7] -0.036 | [8] -0.054 | IRAK-1-4 Inhibitor I -0.014 | ibrutinib 0.117 | [9] -0.038 | ralimetinib 0.025 | [10] 0.013 | [11] 0.039 | [12] -0.021 | [13] -0.006 | [14] -0.035 | [15] 0.017 | [16] 0

CMC1 (UniProt Q7Z7K0)
inactive: erlotinib -0.008 | [1] -0.042 | [2] 0.049 | [3] 0.053 | [4] -0.015 | [5] 0.068 | [6] -0.054 | [7] 0.05 | [8] 0.01 | IRAK-1-4 Inhibitor I -0.02 | ibrutinib -0.089 | [9] -0.027 | ralimetinib -0.023 | [10] -0.003 | [11] 0.008 | [12] 0.051 | [13] -0.032 | [14] -0.081 | [15] -0.031 | [16] -0.029

CMC2 (UniProt Q9NRP2)
inactive: erlotinib -0.09 | [1] 0.031 | [2] 0.017 | [3] 0.025 | [4] 0.053 | [5] -0.001 | [6] -0.03 | [7] 0.054 | [8] 0.026 | IRAK-1-4 Inhibitor I -0.094 | ibrutinib 0.11 | [9] 0.016 | ralimetinib 0.105 | [10] 0.12 | [11] -0.031 | [12] 0.031 | [13] -0.029 | [14] -0.094 | [15] -0.011 | [16] -0.029

CKS1B (UniProt P61024)
inactive: erlotinib -0.058 | [1] -0.097 | [2] -0.037 | [3] 0.042 | [4] 0.008 | [5] 0.121 | [6] 0.092 | [7] 0.038 | [8] -0.012 | IRAK-1-4 Inhibitor I -0.018 | ibrutinib 0.049 | [9] 0.01 | ralimetinib -0.161 | [10] -0.034 | [11] 0.011 | [12] 0.055 | [13] 0 | [14] -0.059 | [15] 0.003 | [16] -0.012

2 successive records out of the list so far, quoted:
CHMP7 (UniProt Q8WUX9)
inactive: erlotinib -0.003 | [1] 0.01 | [2] 0.006 | [3] -0.017 | [4] 0.01 | [5] -0.041 | [6] 0.005 | [7] -0.036 | [8] -0.054 | IRAK-1-4 Inhibitor I -0.014 | ibrutinib 0.117 | [9] -0.038 | ralimetinib 0.025 | [10] 0.013 | [11] 0.039 | [12] -0.021 | [13] -0.006 | [14] -0.035 | [15] 0.017 | [16] 0

CMC1 (UniProt Q7Z7K0)
inactive: erlotinib -0.008 | [1] -0.042 | [2] 0.049 | [3] 0.053 | [4] -0.015 | [5] 0.068 | [6] -0.054 | [7] 0.05 | [8] 0.01 | IRAK-1-4 Inhibitor I -0.02 | ibrutinib -0.089 | [9] -0.027 | ralimetinib -0.023 | [10] -0.003 | [11] 0.008 | [12] 0.051 | [13] -0.032 | [14] -0.081 | [15] -0.031 | [16] -0.029

(list continues)

CIZ1 (UniProt Q9ULV3)
inactive: erlotinib -0.017 | [1] -0.027 | [2] 0.091 | [3] -0.045 | [4] -0.036 | [5] -0.027 | [6] -0.018 | [7] -0.017 | [8] 0.028 | IRAK-1-4 Inhibitor I 0.033 | ibrutinib 0.073 | [9] 0.011 | ralimetinib -0.019 | [10] -0.011 | [11] -0.112 | [12] -0.083 | [13] -0.001 | [14] -0.031 | [15] -0.012 | [16] -0.058

CHCHD4 isoform 2 (UniProt Q8N4Q1)
inactive: erlotinib -0.069 | [1] -0.06 | [2] -0.068 | [3] -0.028 | [4] -0.111 | [5] -0.018 | [6] -0.073 | [7] -0.044 | [8] 0.009 | IRAK-1-4 Inhibitor I 0.016 | ibrutinib 0.076 | [9] -0.041 | ralimetinib 0.034 | [10] -0.091 | [11] -0.015 | [12] 0.076 | [13] 0.002 | [14] 0.039 | [15] 0 | [16] 0.013

CHMP2A (UniProt O43633)
inactive: erlotinib -0.029 | [1] -0.322 | [2] 0.006 | [3] -0.021 | [4] -0.005 | [5] 0 | [6] 0.034 | [7] -0.022 | [8] -0.031 | IRAK-1-4 Inhibitor I -0.044 | ibrutinib 0.017 | [9] 0.057 | ralimetinib 0.021 | [10] 0.001 | [11] 0.014 | [12] -0.009 | [13] 0.034 | [14] 0.019 | [15] -0.034 | [16] 0.001

CHAMP1 (UniProt Q96JM3)
inactive: erlotinib -0.008 | [1] -0.027 | [2] 0.021 | [3] 0.014 | [4] -0.02 | [5] 0.029 | [6] -0.05 | [7] -0.03 | [8] 0.029 | IRAK-1-4 Inhibitor I -0.003 | ibrutinib 0.038 | [9] -0.03 | ralimetinib -0.041 | [10] -0.032 | [11] -0.015 | [12] -0.02 | [13] 0.011 | [14] 0.008 | [15] -0.002 | [16] 0.016
